Here are results for one compound from paper PMC11477289, “Low-Basicity 5-HT6 Receptor Ligands from the Group of Cyclic Arylguanidine Derivatives and Their Antiproliferative Activity Evaluation” (International Journal of Molecular Sciences, 2024).

Amino acid sequences for entries named in this document (tags omitted).
UniProt P50406, whole entry: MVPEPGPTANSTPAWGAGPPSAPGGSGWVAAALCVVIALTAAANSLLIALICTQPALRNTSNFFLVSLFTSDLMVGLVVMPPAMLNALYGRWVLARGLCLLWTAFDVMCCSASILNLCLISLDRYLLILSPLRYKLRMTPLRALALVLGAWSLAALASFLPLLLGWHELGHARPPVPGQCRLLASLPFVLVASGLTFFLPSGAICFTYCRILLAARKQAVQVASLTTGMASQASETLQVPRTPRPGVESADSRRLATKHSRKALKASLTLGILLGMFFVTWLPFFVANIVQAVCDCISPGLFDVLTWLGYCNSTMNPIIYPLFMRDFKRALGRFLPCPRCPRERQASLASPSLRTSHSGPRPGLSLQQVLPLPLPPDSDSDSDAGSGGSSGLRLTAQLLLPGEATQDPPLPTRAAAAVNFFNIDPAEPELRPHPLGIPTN

The assay addresses T1, human 5-HT6 (Homo sapiens, UniProt P50406).
T1 construct: expressed in transfected cells
The assay is described as follows: Functional evaluation, cAMP (LANCE Ultra) in HEK293 cells. As to conditions: antagonist mode, cAMP induced by 5-CT 1000 nM. Format: cell-based. As for the experimental part:
The inversion towards the agonist of the mentioned compound seems to be extremely interesting.
The supernatant was aspirated, and the cell pellet was resuspended in a stimulation buffer (1 × HBSS, 5 mM HEPES, 0.5 mM IBMX, 0.1% BSA).
The functional properties of compounds were evaluated using the LANCE Ultra cAMP detection kit (PerkinElmer). […] To investigate the antagonist activity, dopamine for D2R was added at a concentration of 10 nM, and for cell lines with 5-HT7R, 5-HT1AR, or 5-HT6R, 5-CT concentrations were adjusted, being, respectively, 10, 100, and 1000 nM, according to the receptor subtype.
For the quantification of cAMP levels, cells (5 µL) were incubated with a 5 µL mixture of necessary compounds for 30 min at room temperature in a 384-well white opaque microtiter plate (PerkinElmer). After incubation, the reaction was stopped, and cells were lysed by the addition of a 10 µL working solution (5 µL Eu-cAMP and 5 µL ULight-anti-cAMP). The assay plate was incubated for 1 h at room temperature. The time-resolved fluorescence resonance energy transfer (TR-FRET) signal was detected by an Infinite M1000 Pro (Tecan, Männedorf, Switzerland) using instrument settings from the LANCE Ultra cAMP detection kit manual.
(In general: In TR-FRET formats the signal depends on donor and acceptor labels being close together.)

Turning to `COc1ccc(NS(=O)(=O)c2ccc(I)cc2)cc1N1CCN(C)CC1` [SB258585, reference compound], the antagonist dissociation constant (Kb) amounted to 300 pM.

In general, Kb refers to the affinity of an antagonist, worked out from how it opposes an agonist. Read a high Kb as a less potent antagonist.
